This is one part of the list.
Columns and labels:
Assay in all cases: log2 fold change, soluble protein after heating vs DMSO (PISA); higher = thermal stabilisation; K562 cells, 10 uM, 30 min; active = over 0.2 and 3.5 SD of the protein, either way, in both replicates (recomputed)
[1] = compound: CS(=O)(=O)c1ccc(-c2cnc(N)c(C(=O)Nc3ccccc3)n2)cc1
Summary of the method: (§1)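 Thermal stability values are relative to control samples and come from duplicates. They are expressed as log2 fold changes. For measurement, K562 cells (2×10^6 cells/mL) received 10 μM compound for 30 min, and aliquots were heated for 3 min over 48°C-58°C, pooled, and extracted at 4°C in PBS with 0.5% NP-40. Soluble protein, the supernatant after 21,000xg for 90 min, was quantified by TMTpro 16plex LC-MS/MS with equalised channel sums.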

Amino acid sequences for entries named in this document (tags omitted). A change or cut given only in a name is not applied to a line headed by its entry.
UniProt P32321: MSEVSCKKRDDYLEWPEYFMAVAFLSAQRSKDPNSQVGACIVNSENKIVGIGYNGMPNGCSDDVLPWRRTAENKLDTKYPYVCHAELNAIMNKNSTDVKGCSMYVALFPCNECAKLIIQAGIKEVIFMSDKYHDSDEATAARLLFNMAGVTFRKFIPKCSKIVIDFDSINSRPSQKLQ
UniProt Q96F07, whole entry, looked up: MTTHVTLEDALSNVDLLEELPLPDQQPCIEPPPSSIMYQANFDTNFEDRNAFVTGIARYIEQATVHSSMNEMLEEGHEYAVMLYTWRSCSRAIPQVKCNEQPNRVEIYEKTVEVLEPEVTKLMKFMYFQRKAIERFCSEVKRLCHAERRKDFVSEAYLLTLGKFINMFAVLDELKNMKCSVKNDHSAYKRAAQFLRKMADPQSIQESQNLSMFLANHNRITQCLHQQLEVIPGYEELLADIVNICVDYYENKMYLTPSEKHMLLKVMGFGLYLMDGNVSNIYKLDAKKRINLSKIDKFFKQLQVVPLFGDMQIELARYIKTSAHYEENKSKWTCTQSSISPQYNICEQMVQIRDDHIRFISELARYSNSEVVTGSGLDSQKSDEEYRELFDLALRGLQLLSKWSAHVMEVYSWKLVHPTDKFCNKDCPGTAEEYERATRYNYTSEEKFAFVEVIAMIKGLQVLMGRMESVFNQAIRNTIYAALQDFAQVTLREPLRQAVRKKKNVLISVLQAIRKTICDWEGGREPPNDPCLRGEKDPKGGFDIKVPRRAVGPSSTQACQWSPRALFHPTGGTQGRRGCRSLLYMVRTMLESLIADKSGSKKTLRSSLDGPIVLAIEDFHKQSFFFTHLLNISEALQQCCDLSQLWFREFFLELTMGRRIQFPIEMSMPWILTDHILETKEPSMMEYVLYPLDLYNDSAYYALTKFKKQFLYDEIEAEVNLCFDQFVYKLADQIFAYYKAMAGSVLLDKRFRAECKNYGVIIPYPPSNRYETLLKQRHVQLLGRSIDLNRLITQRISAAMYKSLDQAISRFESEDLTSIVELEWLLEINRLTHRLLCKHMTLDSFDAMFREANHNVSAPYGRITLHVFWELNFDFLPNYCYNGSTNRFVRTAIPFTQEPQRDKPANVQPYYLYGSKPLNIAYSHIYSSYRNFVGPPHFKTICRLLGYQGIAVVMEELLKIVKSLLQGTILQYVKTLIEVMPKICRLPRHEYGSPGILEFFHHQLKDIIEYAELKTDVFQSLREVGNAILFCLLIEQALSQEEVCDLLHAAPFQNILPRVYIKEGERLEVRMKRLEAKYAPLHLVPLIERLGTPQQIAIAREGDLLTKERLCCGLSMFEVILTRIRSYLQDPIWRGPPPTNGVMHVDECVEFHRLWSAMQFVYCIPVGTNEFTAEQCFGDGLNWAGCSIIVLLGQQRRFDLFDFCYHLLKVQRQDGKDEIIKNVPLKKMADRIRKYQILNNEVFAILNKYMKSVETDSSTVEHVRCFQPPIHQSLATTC
UniProt Q66K64, whole entry, looked up: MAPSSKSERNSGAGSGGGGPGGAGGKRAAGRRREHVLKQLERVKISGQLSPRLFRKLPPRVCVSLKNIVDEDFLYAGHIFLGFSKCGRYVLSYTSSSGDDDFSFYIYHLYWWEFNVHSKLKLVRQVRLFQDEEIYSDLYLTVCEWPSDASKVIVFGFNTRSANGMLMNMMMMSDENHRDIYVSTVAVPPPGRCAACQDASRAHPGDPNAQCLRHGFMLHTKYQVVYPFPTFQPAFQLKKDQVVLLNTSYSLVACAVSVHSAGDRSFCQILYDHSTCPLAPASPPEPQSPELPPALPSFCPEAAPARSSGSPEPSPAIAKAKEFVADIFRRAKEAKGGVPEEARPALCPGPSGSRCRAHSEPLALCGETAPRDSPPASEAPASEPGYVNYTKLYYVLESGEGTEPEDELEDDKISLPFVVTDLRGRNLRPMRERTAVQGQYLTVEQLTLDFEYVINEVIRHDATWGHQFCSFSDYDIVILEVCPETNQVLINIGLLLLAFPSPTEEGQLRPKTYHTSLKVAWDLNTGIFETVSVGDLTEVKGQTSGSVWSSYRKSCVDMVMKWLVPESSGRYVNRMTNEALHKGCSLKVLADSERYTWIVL
UniProt Q05048: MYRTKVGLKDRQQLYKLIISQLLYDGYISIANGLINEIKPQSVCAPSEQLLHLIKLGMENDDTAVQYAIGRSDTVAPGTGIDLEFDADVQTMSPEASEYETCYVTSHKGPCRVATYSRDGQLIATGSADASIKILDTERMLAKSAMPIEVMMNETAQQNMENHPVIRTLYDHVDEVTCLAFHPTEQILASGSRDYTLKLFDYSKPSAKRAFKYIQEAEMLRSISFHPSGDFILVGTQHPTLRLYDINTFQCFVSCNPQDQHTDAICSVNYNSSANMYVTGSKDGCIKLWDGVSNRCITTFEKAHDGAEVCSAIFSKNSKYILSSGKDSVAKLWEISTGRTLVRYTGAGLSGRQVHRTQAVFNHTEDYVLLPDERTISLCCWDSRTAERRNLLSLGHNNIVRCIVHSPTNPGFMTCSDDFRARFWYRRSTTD
UniProt P61962: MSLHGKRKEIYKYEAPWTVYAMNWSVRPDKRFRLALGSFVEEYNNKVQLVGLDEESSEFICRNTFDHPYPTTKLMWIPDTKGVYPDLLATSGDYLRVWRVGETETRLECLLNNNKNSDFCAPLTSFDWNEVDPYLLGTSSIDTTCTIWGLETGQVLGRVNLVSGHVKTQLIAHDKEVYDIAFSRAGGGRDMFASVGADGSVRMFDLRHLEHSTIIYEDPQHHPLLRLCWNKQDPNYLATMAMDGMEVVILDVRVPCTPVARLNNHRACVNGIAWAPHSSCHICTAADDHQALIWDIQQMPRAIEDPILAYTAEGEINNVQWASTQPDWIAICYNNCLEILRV
UniProt Q5JQC4: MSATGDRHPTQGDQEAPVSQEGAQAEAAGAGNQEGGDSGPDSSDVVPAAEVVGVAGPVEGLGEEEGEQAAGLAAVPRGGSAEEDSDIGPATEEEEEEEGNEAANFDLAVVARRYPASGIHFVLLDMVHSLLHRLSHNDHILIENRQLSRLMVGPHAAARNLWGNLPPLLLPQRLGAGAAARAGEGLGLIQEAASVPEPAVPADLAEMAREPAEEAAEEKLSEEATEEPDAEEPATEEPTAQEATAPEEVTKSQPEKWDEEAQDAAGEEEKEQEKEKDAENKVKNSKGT
UniProt Q5QP82: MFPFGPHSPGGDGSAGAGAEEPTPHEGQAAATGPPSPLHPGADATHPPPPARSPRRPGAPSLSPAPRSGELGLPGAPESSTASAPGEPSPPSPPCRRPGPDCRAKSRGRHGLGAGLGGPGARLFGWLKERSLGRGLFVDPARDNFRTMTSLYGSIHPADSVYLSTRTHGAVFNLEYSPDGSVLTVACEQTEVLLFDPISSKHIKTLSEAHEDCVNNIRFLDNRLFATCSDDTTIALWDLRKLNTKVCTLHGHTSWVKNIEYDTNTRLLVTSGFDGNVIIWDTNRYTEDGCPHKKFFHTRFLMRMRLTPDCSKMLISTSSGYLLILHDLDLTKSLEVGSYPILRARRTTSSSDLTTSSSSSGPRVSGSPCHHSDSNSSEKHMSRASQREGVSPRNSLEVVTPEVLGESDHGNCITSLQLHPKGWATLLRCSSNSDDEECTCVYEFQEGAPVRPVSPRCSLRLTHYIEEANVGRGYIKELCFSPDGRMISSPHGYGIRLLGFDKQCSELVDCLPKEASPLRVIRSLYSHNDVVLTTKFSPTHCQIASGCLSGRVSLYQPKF
UniProt Q5TAQ9: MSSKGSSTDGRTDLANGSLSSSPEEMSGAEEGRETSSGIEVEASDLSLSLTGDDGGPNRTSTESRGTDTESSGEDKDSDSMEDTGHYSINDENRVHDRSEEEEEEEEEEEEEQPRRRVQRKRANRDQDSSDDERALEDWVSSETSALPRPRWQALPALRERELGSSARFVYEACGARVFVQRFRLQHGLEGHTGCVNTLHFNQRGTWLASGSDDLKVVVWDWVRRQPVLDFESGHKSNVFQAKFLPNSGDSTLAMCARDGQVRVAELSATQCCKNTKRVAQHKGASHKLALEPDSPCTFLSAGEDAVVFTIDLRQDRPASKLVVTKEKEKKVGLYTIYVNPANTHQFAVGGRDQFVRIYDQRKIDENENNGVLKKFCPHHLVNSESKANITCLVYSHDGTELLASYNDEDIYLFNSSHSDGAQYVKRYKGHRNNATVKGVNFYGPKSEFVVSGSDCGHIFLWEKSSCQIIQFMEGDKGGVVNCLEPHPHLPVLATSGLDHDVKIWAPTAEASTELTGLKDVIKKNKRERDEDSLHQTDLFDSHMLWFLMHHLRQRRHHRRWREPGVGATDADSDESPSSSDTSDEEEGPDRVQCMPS
UniProt Q7L1T6: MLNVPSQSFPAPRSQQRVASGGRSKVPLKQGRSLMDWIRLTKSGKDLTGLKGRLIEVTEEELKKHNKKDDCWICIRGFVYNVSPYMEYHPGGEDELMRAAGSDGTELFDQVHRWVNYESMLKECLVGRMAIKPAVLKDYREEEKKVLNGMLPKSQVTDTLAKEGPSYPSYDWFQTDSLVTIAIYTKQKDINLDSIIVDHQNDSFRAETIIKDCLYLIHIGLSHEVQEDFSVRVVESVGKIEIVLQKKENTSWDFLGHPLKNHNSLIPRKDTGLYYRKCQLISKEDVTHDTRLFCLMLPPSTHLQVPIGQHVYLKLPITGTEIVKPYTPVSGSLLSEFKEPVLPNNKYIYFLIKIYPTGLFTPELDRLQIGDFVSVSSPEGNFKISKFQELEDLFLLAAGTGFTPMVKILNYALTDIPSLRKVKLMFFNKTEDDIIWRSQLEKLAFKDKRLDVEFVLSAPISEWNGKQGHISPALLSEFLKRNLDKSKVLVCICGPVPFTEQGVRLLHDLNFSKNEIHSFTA
UniProt O60888: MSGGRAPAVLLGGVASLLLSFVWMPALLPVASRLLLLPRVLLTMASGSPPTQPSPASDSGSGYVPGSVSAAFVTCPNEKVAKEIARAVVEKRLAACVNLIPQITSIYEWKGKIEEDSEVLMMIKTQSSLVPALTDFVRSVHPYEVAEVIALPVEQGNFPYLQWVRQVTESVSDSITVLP
UniProt Q9Y5B0: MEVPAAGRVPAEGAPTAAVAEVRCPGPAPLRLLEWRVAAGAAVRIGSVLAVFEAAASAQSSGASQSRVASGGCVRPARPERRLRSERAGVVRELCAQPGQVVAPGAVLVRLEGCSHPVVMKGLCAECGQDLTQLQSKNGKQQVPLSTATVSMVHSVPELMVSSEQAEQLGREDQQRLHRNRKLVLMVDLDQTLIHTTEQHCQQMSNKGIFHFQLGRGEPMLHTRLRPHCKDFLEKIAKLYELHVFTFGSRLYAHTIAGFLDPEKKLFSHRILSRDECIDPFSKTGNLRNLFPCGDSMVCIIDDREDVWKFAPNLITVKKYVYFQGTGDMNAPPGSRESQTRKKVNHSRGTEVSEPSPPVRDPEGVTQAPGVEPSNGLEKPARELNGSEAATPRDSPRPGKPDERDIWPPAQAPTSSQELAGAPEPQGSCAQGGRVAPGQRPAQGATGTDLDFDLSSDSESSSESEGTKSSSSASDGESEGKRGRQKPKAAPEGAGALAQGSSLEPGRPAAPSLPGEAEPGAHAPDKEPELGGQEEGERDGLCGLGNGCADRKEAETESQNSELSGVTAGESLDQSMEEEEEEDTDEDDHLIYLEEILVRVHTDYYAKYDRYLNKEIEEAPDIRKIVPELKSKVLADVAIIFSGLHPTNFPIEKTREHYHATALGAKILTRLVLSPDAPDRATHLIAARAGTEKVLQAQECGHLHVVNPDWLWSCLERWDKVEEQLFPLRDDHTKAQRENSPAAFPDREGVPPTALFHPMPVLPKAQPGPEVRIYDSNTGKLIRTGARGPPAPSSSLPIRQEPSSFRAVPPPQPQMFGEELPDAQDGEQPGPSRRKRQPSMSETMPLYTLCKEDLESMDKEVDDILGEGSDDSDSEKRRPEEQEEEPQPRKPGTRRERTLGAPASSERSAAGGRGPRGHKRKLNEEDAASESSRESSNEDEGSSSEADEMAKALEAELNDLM
UniProt Q8WVC6: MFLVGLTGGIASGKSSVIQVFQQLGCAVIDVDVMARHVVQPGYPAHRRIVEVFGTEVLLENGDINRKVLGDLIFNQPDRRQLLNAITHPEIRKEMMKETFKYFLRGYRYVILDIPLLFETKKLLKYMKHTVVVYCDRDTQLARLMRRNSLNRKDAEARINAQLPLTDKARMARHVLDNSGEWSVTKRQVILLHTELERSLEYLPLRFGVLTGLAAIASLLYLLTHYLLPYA
UniProt P04080: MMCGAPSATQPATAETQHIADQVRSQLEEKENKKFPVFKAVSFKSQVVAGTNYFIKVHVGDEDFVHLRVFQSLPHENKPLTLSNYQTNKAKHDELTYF
UniProt P21291: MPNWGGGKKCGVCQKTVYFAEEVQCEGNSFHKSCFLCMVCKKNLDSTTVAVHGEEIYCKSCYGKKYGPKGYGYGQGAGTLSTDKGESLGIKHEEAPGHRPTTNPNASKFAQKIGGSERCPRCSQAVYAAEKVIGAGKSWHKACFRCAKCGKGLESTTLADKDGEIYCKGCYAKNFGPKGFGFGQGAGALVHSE
UniProt P61803: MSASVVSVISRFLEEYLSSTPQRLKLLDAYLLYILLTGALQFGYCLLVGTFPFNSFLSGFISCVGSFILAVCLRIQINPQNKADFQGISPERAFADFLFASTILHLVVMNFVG

crizotinib = compound: C[C@@H](Oc1cc(-c2cnn(C3CCNCC3)c2)cnc1N)c1c(Cl)ccc(F)c1Cl [crizotinib]
Summary of the method: as §1

[2] = compound: C[C@@H]1COCCN1C2=NC(=NC(=C2)C3(CC3)S(=O)(=O)C)C4=C5C=CNC5=CC=C4
Summary of the method: as §1

[3] = compound: C[C@H](C1=CC=C(C=C1)C(=O)NC2=C3C=CNC3=NC=C2)N
Summary of the method: as §1

duvelisib = compound: C[C@H](Nc1ncnc2nc[nH]c12)c1cc2cccc(Cl)c2c(=O)n1-c1ccccc1 [duvelisib]
Summary of the method: as §1

gandotinib = compound: Cc1cc(Nc2cc(CN3CCOCC3)c3nc(C)c(Cc4ccc(Cl)cc4F)n3n2)n[nH]1 [gandotinib]
Summary of the method: as §1

tozasertib = compound: Cc1cc(Nc2cc(N3CCN(C)CC3)nc(Sc3ccc(NC(=O)C4CC4)cc3)n2)n[nH]1 [tozasertib]
Summary of the method: as §1

[4] = compound: Cc1cc(SCc2sc(-c3ccc(C(F)(F)F)cc3)nc2C)ccc1OCC(=O)O
Summary of the method: as §1

doramapimod = compound: Cc1ccc(-n2nc(C(C)(C)C)cc2NC(=O)Nc2ccc(OCCN3CCOCC3)c3ccccc23)cc1 [doramapimod]
Summary of the method: as §1

ispinesib = compound: Cc1ccc(C(=O)N(CCCN)[C@@H](c2nc3cc(Cl)ccc3c(=O)n2Cc2ccccc2)C(C)C)cc1 [ispinesib]
Summary of the method: as §1

Measured: log2 fold change

DCAF11 (UniProt Q8TEB1)
inactive: [1] 0.021 | crizotinib 0.001 | [2] 0.047 | [3] -0.044 | duvelisib 0.109 | gandotinib -0.016 | tozasertib -0.007 | [4] 0.017 | doramapimod -0.006 | ispinesib -0.061

CWF19L1 (UniProt Q69YN2)
inactive: [1] -0.03 | crizotinib 0.062 | [2] 0.078 | [3] -0.003 | duvelisib 0.033 | gandotinib 0.049 | tozasertib -0.001 | [4] -0.001 | doramapimod 0 | ispinesib 0.063

DCTD isoform 2 (UniProt P32321)
inactive: [1] 0.01 | crizotinib 0.054 | [2] 0.091 | [3] -0.017 | duvelisib 0.04 | gandotinib -0.051 | tozasertib 0.018 | [4] -0.02 | doramapimod -0.029 | ispinesib 0.046

CYFIP2 (UniProt Q96F07)
inactive: [1] 0.013 | crizotinib -0.065 | [2] 0.049 | [3] -0.063 | duvelisib 0.035 | gandotinib -0.052 | tozasertib 0.012 | [4] 0.032 | doramapimod 0.028 | ispinesib -0.02

DARS2 (UniProt Q6PI48)
inactive: [1] -0.019 | crizotinib 0.049 | [2] -0.033 | [3] -0.005 | duvelisib -0.007 | gandotinib -0.024 | tozasertib -0.003 | [4] -0.007 | doramapimod -0.025 | ispinesib 0.014

DARS (UniProt P14868)
inactive: [1] -0.009 | crizotinib 0 | [2] -0.054 | [3] 0.027 | duvelisib -0.022 | gandotinib 0.01 | tozasertib -0.027 | [4] -0.022 | doramapimod 0.009 | ispinesib -0.032

CYP20A1 (UniProt Q6UW02)
inactive: [1] -0.038 | crizotinib -0.041 | [2] 0.077 | [3] -0.038 | duvelisib 0.045 | gandotinib -0.189 | tozasertib 0 | [4] 0.009 | doramapimod -0.004 | ispinesib 0.022

DCP1A (UniProt Q9NPI6)
inactive: [1] -0.134 | crizotinib -0.285 | [2] -0.05 | [3] 0.169 | duvelisib -0.049 | gandotinib 0.063 | tozasertib 0.2 | [4] 0.149 | doramapimod 0.052 | ispinesib -0.058

DCAF15 (UniProt Q66K64)
inactive: [1] 0.081 | crizotinib 0 | [2] -0.094 | [3] -0.007 | duvelisib 0.075 | tozasertib -0.048 | [4] 0.017 | doramapimod 0.059 | ispinesib 0.062

CXorf38 (UniProt Q8TB03)
inactive: [1] 0.003 | crizotinib -0.025 | [2] 0.039 | [3] -0.049 | duvelisib 0.018 | gandotinib 0.001 | tozasertib 0.002 | [4] 0.011 | doramapimod -0.001 | ispinesib 0.019

CSTF1 (UniProt Q05048)
inactive: [1] 0.004 | crizotinib 0.087 | [2] -0.017 | [3] 0.009 | duvelisib 0.116 | gandotinib -0.007 | tozasertib -0.018 | [4] 0.048 | doramapimod -0.1 | ispinesib 0.107

DCAF7 (UniProt P61962)
inactive: [1] -0.038 | crizotinib 0.017 | [2] 0.038 | [3] 0.112 | duvelisib 0.028 | gandotinib -0.01 | tozasertib -0.061 | [4] 0.041 | doramapimod -0.011 | ispinesib 0.006

CT47A1 (UniProt Q5JQC4)
inactive: [1] 0.098 | crizotinib -0.136 | [2] -0.104 | [3] 0.069 | duvelisib 0.067 | gandotinib 0.015 | tozasertib -0.097 | [4] 0.006 | doramapimod 0.061 | ispinesib 0.181

DCAF10 (UniProt Q5QP82)
inactive: [1] 0.036 | crizotinib 0.007 | [2] 0.037 | [3] 0.017 | gandotinib -0.15 | [4] -0.098 | doramapimod 0.055 | ispinesib -0.059

DCAF8 (UniProt Q5TAQ9)
inactive: [1] 0.055 | crizotinib 0.077 | [2] 0.056 | [3] -0.198 | duvelisib 0.04 | gandotinib -0.036 | tozasertib 0.054 | [4] -0.021 | doramapimod 0.002 | ispinesib 0.069

CTNNA2 (UniProt P26232)
inactive: [1] -0.016 | crizotinib -0.03 | [2] -0.003 | [3] -0.055 | duvelisib 0.076 | gandotinib -0.04 | tozasertib -0.005 | [4] 0.028 | doramapimod 0.056 | ispinesib 0.029

CYB5R4 (UniProt Q7L1T6)
inactive: [1] -0.013 | crizotinib -0.008 | [2] 0.048 | [3] -0.041 | duvelisib 0.07 | gandotinib -0.006 | tozasertib -0.062 | [4] -0.019 | doramapimod 0.001 | ispinesib 0.009

CUTA isoform 2 (UniProt O60888)
inactive: [1] 0.073 | crizotinib -0.045 | [2] 0.021 | [3] -0.001 | gandotinib 0.131 | [4] -0.049 | doramapimod -0.019 | ispinesib 0.109

CUL5 (UniProt Q93034)
inactive: [1] 0.022 | crizotinib 0.054 | [2] 0.052 | [3] -0.046 | duvelisib 0.024 | gandotinib -0.046 | tozasertib -0.013 | [4] -0.026 | doramapimod -0.02 | ispinesib 0.038

CYBC1 (UniProt Q9BQA9)
inactive: [1] 0.032 | crizotinib 0.076 | [2] -0.047 | [3] -0.029 | duvelisib 0.101 | gandotinib -0.126 | tozasertib -0.027 | [4] -0.056 | doramapimod 0.002 | ispinesib -0.116

CTDP1 (UniProt Q9Y5B0)
inactive: [1] 0.056 | crizotinib -0.096 | [2] -0.082 | [3] -0.056 | duvelisib 0.076 | tozasertib 0.055 | [4] 0.044 | doramapimod -0.053

DCAKD (UniProt Q8WVC6)
inactive: [1] 0.055 | crizotinib -0.063 | [2] 0.004 | [3] 0.005 | duvelisib 0.138 | gandotinib -0.011 | tozasertib -0.038 | [4] 0.091 | doramapimod 0.046 | ispinesib -0.256

CWC25 (UniProt Q9NXE8)
inactive: [1] -0.049 | crizotinib -0.057 | [2] -0.203 | [3] 0.401 | gandotinib 0.249 | tozasertib 0.039 | doramapimod 0.239 | ispinesib -0.149

CSTB (UniProt P04080)
inactive: [1] 0.011 | crizotinib 0.102 | [2] 0.029 | [3] -0.069 | duvelisib 0.024 | gandotinib -0.052 | tozasertib 0.054 | [4] 0.017 | doramapimod -0.017 | ispinesib 0.075

DCTN1 isoform 4 (UniProt Q14203)
inactive: [1] -0.013 | crizotinib -0.112 | [2] 0.015 | [3] 0.131 | gandotinib 0.016 | [4] 0.111 | doramapimod 0.088 | ispinesib -0.141

CSRP1 (UniProt P21291)
inactive: [1] -0.004 | crizotinib 0.02 | [2] -0.02 | [3] -0.079 | duvelisib -0.001 | gandotinib 0.052 | tozasertib -0.041 | [4] -0.052 | doramapimod -0.084 | ispinesib 0.054

Looked up one by one from above, 2 records:
CYBC1 (UniProt Q9BQA9)
inactive: [1] 0.032 | crizotinib 0.076 | [2] -0.047 | [3] -0.029 | duvelisib 0.101 | gandotinib -0.126 | tozasertib -0.027 | [4] -0.056 | doramapimod 0.002 | ispinesib -0.116

CWF19L1 (UniProt Q69YN2)
inactive: [1] -0.03 | crizotinib 0.062 | [2] 0.078 | [3] -0.003 | duvelisib 0.033 | gandotinib 0.049 | tozasertib -0.001 | [4] -0.001 | doramapimod 0 | ispinesib 0.063

The list continues.

DAD1 (UniProt P61803)
inactive: [1] 0.015 | crizotinib -0.077 | [2] 0.021 | [3] -0.109 | duvelisib -0.072 | tozasertib -0.048 | [4] -0.051 | doramapimod -0.029

CTBP1 (UniProt Q13363)
inactive: [1] 0.005 | crizotinib 0.067 | [2] 0.058 | [3] -0.073 | duvelisib 0.002 | gandotinib -0.077 | tozasertib -0.028 | [4] -0.017 | doramapimod -0.025 | ispinesib 0.048

DAZAP1 (UniProt Q96EP5)
inactive: [1] -0.057 | crizotinib 0.014 | [2] -0.045 | [3] 0.036 | duvelisib -0.016 | gandotinib -0.041 | tozasertib -0.048 | [4] -0.006 | doramapimod -0.011 | ispinesib -0.01

DAP (UniProt P51397)
inactive: [1] 0.04 | crizotinib 0.02 | [2] -0.002 | [3] -0.05 | duvelisib 0.04 | gandotinib 0.05 | tozasertib -0.023 | [4] -0.033 | doramapimod 0.051 | ispinesib 0.05

DCUN1D4 isoform 3 (UniProt Q92564)
inactive: [1] 0.097 | crizotinib -0.033 | [2] -0.041 | [3] 0.019 | duvelisib 0.129 | tozasertib -0.012 | [4] 0.027 | doramapimod -0.058

From the supplement of paper PMC10849652
